Results of single-concentration screens

Sequences of proteins named here, by UniProt entry; tags and fusion partners are left off. Residues count along the entry.
UniProt P9WPC5, whole entry: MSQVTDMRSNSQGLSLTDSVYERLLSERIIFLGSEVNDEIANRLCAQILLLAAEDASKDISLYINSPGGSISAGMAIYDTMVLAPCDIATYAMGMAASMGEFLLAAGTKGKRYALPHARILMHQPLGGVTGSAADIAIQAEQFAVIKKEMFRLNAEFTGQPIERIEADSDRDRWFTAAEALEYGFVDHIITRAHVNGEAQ
UniProt P9WPC3, whole entry partner: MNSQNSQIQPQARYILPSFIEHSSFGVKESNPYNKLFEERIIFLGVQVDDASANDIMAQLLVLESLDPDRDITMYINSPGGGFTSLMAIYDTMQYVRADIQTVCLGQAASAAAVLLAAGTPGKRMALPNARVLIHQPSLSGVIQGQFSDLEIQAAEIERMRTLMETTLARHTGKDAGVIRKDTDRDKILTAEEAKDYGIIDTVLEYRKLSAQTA
UniProt A4I591, 1-473: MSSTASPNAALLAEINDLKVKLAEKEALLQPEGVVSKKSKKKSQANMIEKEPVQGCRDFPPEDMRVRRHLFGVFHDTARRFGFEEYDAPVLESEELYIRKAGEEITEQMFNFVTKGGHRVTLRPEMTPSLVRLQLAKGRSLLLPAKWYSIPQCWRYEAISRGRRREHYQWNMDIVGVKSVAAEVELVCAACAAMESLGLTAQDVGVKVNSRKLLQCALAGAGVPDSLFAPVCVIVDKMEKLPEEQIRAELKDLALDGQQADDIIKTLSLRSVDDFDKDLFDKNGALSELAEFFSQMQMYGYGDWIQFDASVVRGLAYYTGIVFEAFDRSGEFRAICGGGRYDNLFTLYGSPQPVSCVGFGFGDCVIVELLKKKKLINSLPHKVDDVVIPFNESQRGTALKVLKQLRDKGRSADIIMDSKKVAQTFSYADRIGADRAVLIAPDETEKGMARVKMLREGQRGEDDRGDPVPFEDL

The values are deposited in ChEMBL (CHEMBL3988442, “University of Dundee, Small-Polar-MMV Screening Library” (2021)).

A: 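ClpP1P2, Mycobacterium tuberculosis (UniProt P9WPC5 and UniProt P9WPC3). Protease assay of ClpP1P2, read by the AMC dye that it sets free. Tested at 50 µM. Direction is inferred from only a few compounds that gave an IC50; most scored high, so higher reads as stronger inhibition. Most other retested compounds had strongly negative values. Of about 69,000 compounds tested this way, about 10 (0.015%) reached 50% or more in at least one test.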
B: 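Enzyme assay of histidyl-tRNA synthetase; the read-out is not stated. Target: Histidine-tRNA ligase, Leishmania infantum (UniProt A4I591). Tested at 30 µM. Higher reads as stronger inhibition (inferred: compounds with an IC50 in retests scored well above the rest). The assay is labelled LdHisRS but filed under L. infantum. Of about 69,000 compounds tested this way, about 410 (0.6%) reached 50% or more in at least one test.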

Results are given as percent effect.
The controls that fix the scale are not given in the record; negative values are as filed.
The compounds are a random part of those screened.

| Compound | A | B |
|---|---|---|
| `O=C(CCc1nnc2ccccn2c1=O)NCc1ccc2c(c1)OCO2` | 15.11% | 18.68% |
| `CCc1noc(Cn2c(=O)c3c(C(F)(F)F)cc(C)nc3n2C)n1` | -23.56% | 0.885% |
| `CCSCCC(=O)NCc1cc2n(n1)CCN(C(=O)N(C)C)C2` | 0.7634% | 6.849% |
| `Cc1cc(Oc2ccccc2)nc(C2CCN(CCO)CC2)n1` | -8.834% | 11.27% |
| `Cc1nc(NCC2CCOCC2)cc(C2CCN2S(C)(=O)=O)n1` (stereo not shown) | -11.86% | 4.317% |
| `Cc1occc1CNC(=O)C1CCCN1C(=O)C1CC1` (stereo not shown) | -10.26% | 8.571% |
| `Cc1[nH]nc2ncc(C(=O)N3CCN(CC(C)C)CC3)cc12` | 4.02% | 25.76% |
| `Cc1cc(C)c(CNC(=O)NCc2ccc3c(c2)OCCO3)c(=O)[nH]1` | -13.08% | 14.55% |
| `Cc1cccc(S(=O)(=O)N2CC[C@H]3CO[C@H](CN(C)C)[C@H]3C2)c1` | 1.106% | 0.9174% |
| `Cc1ccc(N2CCCC(NCC3=Cc4ccccc4OC3)C2)nn1` (stereo not shown) | -18.78% | 9.649% |
| `CCCC(O)CN1CCC(=O)N(Cc2ccccc2)Cc2ccccc21` (stereo not shown) | -10.52% | 2.041% |
| `O=C(NCc1nnc2n1CCCC2)c1cn(-c2ccccc2)nn1` | -7.56% | 8.197% |
| `Cc1cc(C2CCCN(C(=O)c3c(C)nn4cccnc34)C2)n[nH]1` (stereo not shown) | -3.808% | 17.57% |
| `COc1cc(CSc2nnc(N)n2C2CC2)ccc1SC` | -3.586% | 26.58% |
| `COCC(=O)N1CCc2ccccc2C12CCNCC2` | 5.765% | 7.547% |
| `CCOCCc1nc(-c2cnn3c(C)cc(C)nc23)no1` | -0.01948% | 19.75% |
| `Cc1cnc(N2CC3(CCN(S(=O)(=O)C4CC4)C3)C2)nc1` | -0.2754% | 16% |
| `COc1c(C)cnc(CSc2nnc(N3CCCC3)s2)c1C` | 1.205% | 2.679% |
| `c1ccc(CN2CCCC(c3nccnc3-n3ccnc3)C2)cc1` (stereo not shown) | 12.01% | 9.489% |
| `CN(Cc1nnc(C2CC2)n1C)C1CCN(Cc2ccncc2)C1` (stereo not shown) | -9.478% | 8.929% |
| `O=C(O)CNc1cc(-c2cc(C3CC3)ncn2)c2cc[nH]c2n1` | -1.133% | 4.425% |
| `COc1ccc(C2CCCN2C(=O)c2ccc(=O)n(C)c2)cc1OC` (stereo not shown) | 7.12% | 12.12% |
| `CN(Cc1nc(N)c2ccccc2n1)CC1CCCN1c1cccnn1` (stereo not shown) | 1.146% | 21.33% |
| `Cn1cc(N2CCCC(SCc3ccco3)C2=O)cn1` (stereo not shown) | -7.392% | 15% |
| `Cc1cnn(CC(C)NCc2ccccc2OCc2cccnc2)c1` (stereo not shown) | -21.55% | 16.52% |
| `Cc1nn(CC(O)CN2CCc3ccccc3C2)c(=O)c(C#N)c1C` (stereo not shown) | 4.215% | 4.167% |
| `Cc1cnn(CC(C)NCc2csc(-c3cnn(C)c3)n2)c1` (stereo not shown) | 16.98% | 13.51% |
| `Cc1nn(C)cc1Cn1c(=O)ccc2ccccc21` | -1.045% | 18.18% |
| `O=C(Cn1ccc2ccc(Cl)cc21)NCc1ccc(C(=O)O)cc1` | -6.681% | 10.53% |
| `CC(C)(C)NC[C@@H]1CCC[C@@H]2CN(Cc3csnn3)C[C@@H]21` | -1.575% | 17.11% |
| `CCC(=O)N1CCN(C(=O)NCc2c(C)cc(C)cc2C)CC1` | 2.038% | 16.44% |
| `Cc1ccc(CN2CC[C@@H]3[C@@H]2CCN3C(=O)Cc2cccs2)o1` | 16.61% | 11.88% |
| `CC(C)C(=O)NCc1ccc(N2CCCC2)nc1` | -22.93% | 2.632% |
| `O=C(c1ccc(CN2CC(n3cccn3)C2)cc1)N1CCCC1` | 12.25% | 27.27% |
| `CCN(CC)c1nc(Nc2cccc(C(C)O)c2)nc2ccccc12` (stereo not shown) | 49.48% | 40.74% |
| `Cc1csc(CN2CCC[C@]3(C[C@@H](Oc4ccccn4)CO3)C2)n1` | -8.523% | 11.7% |
| `CCN(CC)Cc1ccc(C(=O)NC2CCc3cc(Br)ccc32)o1` (stereo not shown) | 6.48% | 21.67% |
| `COc1c(CNC2CCc3ccccc32)c(C(C)C)nn1C` (stereo not shown) | 10.92% | 14.55% |
| `COc1cccc2cc(CNC(C)(C)C(=O)N3CCC(O)CC3)oc12` | -2.331% | 10.11% |
| `CC(C)[C@@H]1CN(S(=O)(=O)Cc2ccccc2)C[C@H]1NS(=O)(=O)N(C)C` | 13.01% | 5.882% |
| `Cc1nc2n(n1)CC(NCC(=O)NCCC1=CCCCC1)CC2` (stereo not shown) | 2.166% | 21.92% |
| `COCCN1CCC(N(Cc2noc(C3CC3)n2)C(C)=O)C1` (stereo not shown) | 10.04% | 6.154% |
| `Cc1cnn(CCNCc2cccc(C#N)c2)c1` | -29.73% | 5.505% |
| `Cc1ccc(-c2cc(-c3nc(CN4CCN(C)CC4)no3)n[nH]2)cc1` | 0.7367% | 15.87% |
| `O=S(=O)(NCCc1cn2ccccc2n1)N1CCOCC1` | -0.6887% | 19.47% |
| `Cc1cc(C2CCCN(C(=O)Cc3csc(C(C)C)n3)C2)n[nH]1` (stereo not shown) | -19% | 11.01% |
| `CCc1nnc2n1CCN(Cc1csc(Cc3ccccc3)n1)C2` | 7.874% | 10.71% |
| `Cc1cnn(CCNCc2nc(-c3ccccc3Cl)no2)c1` | 12.02% | 24.8% |
| `CN(C)CCN1C[C@@H]2CN(C(=O)C3CCOC3)C[C@@H]2C1=O` (stereo partly shown) | -2.297% | -3.419% |
| `CC(C)OCCN1CCC(Nc2ncccn2)CC1` | -17.34% | 24.71% |
| `Cc1nnc(CN(C)CCCOc2cccc(Cl)c2)o1` | 5.693% | 7.018% |
| `N#CC1(NC(=O)c2c(F)ccc(OC(F)F)c2F)CCOCC1` | 12.51% | 8.29% |
| `CCC(=O)Nc1ccc(C(C)NC(=O)COC)cc1` (stereo not shown) | 10.04% | 15.96% |
| `COC(=O)C1=NN2C(=NS(=O)(=O)c3ccccc32)N1` | 3.274% | -7.407% |
| `Cc1cc(Cl)ccc1S(=O)(=O)NCC(C)N1CCN(C)CC1` (stereo not shown) | -5.097% | 26.88% |
| `Nc1cc2c(nn1)CCN(C(=O)Cc1ccc3c(c1)CCO3)C2` | 2.026% | 4.386% |
| `CCN1CCC(CC(=O)NC[C@H]2CCc3ccccc3O2)CC1` | -9.81% | 20.43% |
| `CC1CCC2(CC1)NC(=O)c1cc(Br)ccc1-n1nnnc12` (stereo not shown) | -13.82% | 11.5% |
| `CCN(CC)CC[C@H]1CN(C(=O)C2CCC2)CC[C@H]1CC(=O)O` | -3.747% | 16.67% |
| `COc1nc2c(cc1C(=O)N(C)Cc1n[nH]c3c1CCCC3)CCC2` | -4.528% | 18.75% |

For reference, 3 entries once more:

| Compound | A | B |
|---|---|---|
| `Cc1csc(CN2CCC[C@]3(C[C@@H](Oc4ccccn4)CO3)C2)n1` | -8.523% | 11.7% |
| `Cn1cc(N2CCCC(SCc3ccco3)C2=O)cn1` (stereo not shown) | -7.392% | 15% |
| `COc1cccc2cc(CNC(C)(C)C(=O)N3CCC(O)CC3)oc12` | -2.331% | 10.11% |